Some results were stated once for a whole list of compounds, not compound by compound.
What was measured:
[1] = tested on: CHEAL; assay: greenhouse post-emergence herbicidal test; format: in vivo, Chenopodium album; settings: scale 0 to 100
[2] = tested on: AMARE; assay: greenhouse post-emergence herbicidal test; format: in vivo, Amaranthus retroflexus; settings: application rate 0.5 kg/ha, scale 0 to 100

Structure (SMILES)	herbicidal activity against CHEAL ([1]; application rate 0.25 kg/ha)	herbicidal activity against AMARE [2]	herbicidal activity against CHEAL ([1]; application rate 0.5 kg/ha)
O=c1oc2cccnc2c(O)c1-c1cccc(-c2ccon2)c1C(F)(F)F [Compound I-12]	very good herbicidal activity (a very good herbicidal activity is given at values of at least 85)		
O=c1oc2cccnc2c(O)c1-c1cccc(OCC(F)(F)F)c1C(F)(F)F [Compound I-18]		very good herbicidal activity (a very good herbicidal activity is given at values of at least 85)	very good herbicidal activity (a very good herbicidal activity is given at values of at least 85)
COCCOc1cccc(-c2c(O)c3ncccc3oc2=O)c1C(F)(F)F [Compound I-19, 4-hydroxy-3-[3-(2-methoxyethoxy)-2-(trifluoromethyl)phenyl]pyrano[3,2-b]pyridin-2-one]		very good herbicidal activity (a very good herbicidal activity is given at values of at least 85)	very good herbicidal activity (a very good herbicidal activity is given at values of at least 85)
O=c1oc2cccnc2c(O)c1-c1cccc(Oc2ccccc2)c1C(F)(F)F [Compound I-27]		very good herbicidal activity (a very good herbicidal activity is given at values of at least 85)	very good herbicidal activity (a very good herbicidal activity is given at values of at least 85)
O=c1oc2cccnc2c(O)c1-c1cccc(S(=O)(=O)c2ccccc2)c1C(F)(F)F [Compound I-44]		very good herbicidal activity (a very good herbicidal activity is given at values of at least 85)	very good herbicidal activity (a very good herbicidal activity is given at values of at least 85)
CS(=O)(=O)c1cccc(-c2c(O)c3ncccc3oc2=O)c1C(F)(F)F [Compound I-50]		very good herbicidal activity (a very good herbicidal activity is given at values of at least 85)	very good herbicidal activity (a very good herbicidal activity is given at values of at least 85)

From patent US8809535B2, “Substituted pyridines having herbicidal action” (BASF SE, priority 2010, dated 2014)
